The values that follow come from publication PMC5452337.

By UniProt entry, the sequences of proteins in these tests, tags left out. Where a name states a change or a piece, a line headed by the entry shows the natural chain unless it says otherwise.
UniProt Q9Z0U4: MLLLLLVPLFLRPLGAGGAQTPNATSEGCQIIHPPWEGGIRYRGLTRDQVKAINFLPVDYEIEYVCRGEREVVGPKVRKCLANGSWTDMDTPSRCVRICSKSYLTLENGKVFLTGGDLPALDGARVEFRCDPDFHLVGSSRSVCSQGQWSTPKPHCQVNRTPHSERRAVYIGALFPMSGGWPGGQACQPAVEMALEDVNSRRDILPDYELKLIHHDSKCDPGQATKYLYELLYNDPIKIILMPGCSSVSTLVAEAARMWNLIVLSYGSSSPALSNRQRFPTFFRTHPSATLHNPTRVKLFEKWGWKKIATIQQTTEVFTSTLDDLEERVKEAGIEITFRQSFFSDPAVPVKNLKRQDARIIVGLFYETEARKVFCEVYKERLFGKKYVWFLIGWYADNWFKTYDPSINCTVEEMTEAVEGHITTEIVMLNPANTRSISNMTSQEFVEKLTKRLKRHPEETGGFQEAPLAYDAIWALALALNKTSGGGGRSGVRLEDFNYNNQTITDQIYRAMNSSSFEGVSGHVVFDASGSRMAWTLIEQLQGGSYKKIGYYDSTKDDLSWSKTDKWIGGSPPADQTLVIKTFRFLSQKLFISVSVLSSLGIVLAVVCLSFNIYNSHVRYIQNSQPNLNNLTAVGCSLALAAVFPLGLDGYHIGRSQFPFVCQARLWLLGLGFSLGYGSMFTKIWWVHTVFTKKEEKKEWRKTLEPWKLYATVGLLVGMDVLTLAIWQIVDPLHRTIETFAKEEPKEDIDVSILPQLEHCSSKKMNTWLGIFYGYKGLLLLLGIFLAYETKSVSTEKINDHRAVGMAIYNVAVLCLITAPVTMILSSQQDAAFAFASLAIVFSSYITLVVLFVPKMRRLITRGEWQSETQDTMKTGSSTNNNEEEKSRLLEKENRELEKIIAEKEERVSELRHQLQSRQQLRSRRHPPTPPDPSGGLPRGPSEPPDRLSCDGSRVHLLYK

This assay concerns the target GABAB receptor subunit 1, splice isoform GABABR1b (rat (endogenous in organotypic hippocampal slices)) (UniProt Q9Z0U4). Put plainly: co-IP; lysates of rat organotypic hippocampal slices in CHAPS buffer (50 mM Tris pH 7.5, 150 mM NaCl, 5 mM EDTA, 0.5% CHAPS); precipitation with anti-GABABR1 or anti-KCC2, Protein A/G agarose, immunoblot; IgG controls; also slices treated with SKF97541 (amount of KCC2 in GABABR1 complexes not changed).

Results are given in words; binding and its absence hold for the method and conditions named. In cells and extracts the contact can be indirect. Binding can be weak; no strength is given.

B1: potassium-chloride cotransporter KCC2 (protein, UniProt Q63633 1-1139)
chain: MSRRFTVTSLPPAASAASADPESRRHSVADPRRLPREDVKGDGNPKESSPFINSTDTEKGREYDGRNMALFEEEMDTSPMVSSLLSGLANYTNLPQGSKEHEEAENNEGGKKKPVQAPRMGTFMGVYLPCLQNIFGVILFLRLTWVVGIAGIMESFCMVFICCSCTMLTAISMSAIATNGVVPAGGSYYMISRSLGPEFGGAVGLCFYLGTTFAGAMYILGTIEILLAYLFPAMAIFKAEDASGEAAAMLNNMRVYGTCVLTCMATVVFVGVKYVNKFALVFLGCVILSILAIYAGVIKSAFDPPNFPICLLGNRTLSRHGFDVCAKLAWEGNETVTTRLWGLFCSSRLLNATCDEYFTRNNVTEIQGIPGAASGLIKENLWSSYLTKGVIVERRGMPSVGLADGTPVDMDHPYVFSDMTSYFTLLVGIYFPSVTGIMAGSNRSGDLRDAQKSIPTGTILAIATTSAVYISSVVLFGACIEGVVLRDKFGEAVNGNLVVGTLAWPSPWVIVIGSFFSTCGAGLQSLTGAPRLLQAISRDGIVPFLQVFGHGKANGEPTWALLLTACICEIGILIASLDEVAPILSMFFLMCYMFVNLACAVQTLLRTPNWRPRFRYYHWTLSFLGMSLCLALMFICSWYYALVAMLIAGLIYKYIEYRGAEKEWGDGIRGLSLSAARYALLRLEEGPPHTKNWRPQLLVLVRVDQDQNVVHPQLLSLTSQLKAGKGLTIVGSVLEGTFLDNHPQAQRAEESIRRLMEAEKVKGFCQVVISSNLRDGVSHLIQSGGLGGLQHNTVLVGWPRNWRQKEDHQTWRNFIELVRETTAGHLALLVTKNVSMFPGNPERFSEGSIDVWWIVHDGGMLMLLPFLLRHHKVWRKCKMRIFTVAQMDDNSIQMKKDLTTFLYHLRITAEVEVVEMHESDISAYTYEKTLVMEQRSQILKQMHLTKNEREREIQSITDESRGSIRRKNPANTRLRLNVPEETACDNEEKPEEEVQLIHDQSAPSCPSSSPSPGEEPEGEGETDPEKVHLTWTKDKSAAQKNKGPSPVSSEGIKDFFSMKPEWENLNQSNVRRMHTAVRLNEVIVNKSRDAKLVLLNMPGPPRNRNGDENYMEFLEVLTEQLDRVMLVRGGGREVITIYS
On to B1, for which the binding result is “binds”.
